Measured values reported in publication doi:10.1101/2020.06.26.173740.
Results are given in words; binding and its absence hold for the method and conditions named.

Target: R149C mutant form of E. coli MelB (melibiose permease) (E. coli) (UniProt P02921)
Assay: SEC

R149C mutant form of E. coli MelB (melibiose permease) (from UniProt P02921 1-473)
binding: no binding (tested: applied at ∼5 mg/ml)
